The name of at least one read-out is uncertain.
Test system: K+/Cl- channel protein
Conditions: +10^-3 M furosemide; 80 mV; currents normalized relative to control IK (100); ± S.E.M. (number of reconstitutions); 1000 µM

NS(=O)(=O)c1cc(C(=O)O)c(NCc2ccco2)cc1Cl [furosemide]
IK: 93 ± 1 pA

Source: patent US4895807A, “Membrane channel protein and related therapeutic compounds” (priority 1986, dated 1990)
